The target of this assay is His-MBTD1 (UniProt Q05BQ5). Kind of assay: ITC.

By UniProt entry, the sequences of proteins in these tests, tags left out.
UniProt Q05BQ5: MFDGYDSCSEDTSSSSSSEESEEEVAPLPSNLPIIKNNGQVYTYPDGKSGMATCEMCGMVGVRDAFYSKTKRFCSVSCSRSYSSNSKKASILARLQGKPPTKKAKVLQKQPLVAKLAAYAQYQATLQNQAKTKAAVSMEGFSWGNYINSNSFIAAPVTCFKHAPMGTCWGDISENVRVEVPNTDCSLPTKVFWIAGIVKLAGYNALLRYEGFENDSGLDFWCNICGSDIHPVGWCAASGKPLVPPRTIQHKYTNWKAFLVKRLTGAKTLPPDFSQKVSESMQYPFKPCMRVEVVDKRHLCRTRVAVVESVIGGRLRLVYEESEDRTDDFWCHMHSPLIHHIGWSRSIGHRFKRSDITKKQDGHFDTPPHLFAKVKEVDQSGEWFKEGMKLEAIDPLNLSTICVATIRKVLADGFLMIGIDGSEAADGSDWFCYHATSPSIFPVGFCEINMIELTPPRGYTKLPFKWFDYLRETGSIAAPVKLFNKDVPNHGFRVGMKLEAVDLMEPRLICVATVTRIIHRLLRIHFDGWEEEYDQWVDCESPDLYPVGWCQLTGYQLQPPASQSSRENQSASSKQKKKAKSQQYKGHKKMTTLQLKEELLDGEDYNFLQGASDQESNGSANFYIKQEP

No constants are given. Whether binding was seen depends on the method and setting. Some results given as binding are weak or reduced against the parent protein; the word gives no strength.

Take AKRHRKVLRDN (monomethyl-lysine at K20 (printed Kme, the sixth residue of the peptide)) [H4K20me1 peptide]: the binding entry is “binds”.
